Data taken from PubChem BioAssay AID248 (DTP/NCI, 2004).
The list shows only some results of the screen, not a fair sample: it gathers tests that were run many times, whatever their T/C, doses with no T/C, and many T/C values between a quarter and a half above the control. Further doses and runs are listed elsewhere. T/C is the treated group as % of the vehicle group. Some entries give survivors of the animals treated and no T/C: the source files T/C as zero there, which appears to mark a toxic dose or a test without result, not a measured value. Some survivor counts are full or nearly so, which does not show that the dose was tolerated: survival well below the control is almost never listed, so the zero probably covers shortened survival too. Survivors were counted at the toxicity check, usually on the fifth day, unless a day is given; later deaths do not show. Schedule codes are those of the source, taken here to give the interval after Q, in days (D) or hours (H), and the number of doses after X. Some doses were run more than once; their values stand side by side, smallest first. Some schedule codes hold Z or #, which are not explained here. For survival time, this PubChem deposit counts one and a half times the control or more as active, and values a quarter to a half above the control carry no call in these data; other NCI protocols may use other cut-offs.

Test system: L1210 leukemia ip in BDF1 mice, survival T/C
Experiment: NCI In Vivo Anticancer Drug Screen. Data for tumor model L1210 Leukemia (intraperitoneal) in B6D2F1 (BDF1) mice
Details: T/C endpoint: mean survival time, higher T/C = longer survival
[1] = dose: 50.0 mg/kg/injection, schedule: Q01DX009 (ip), vehicle: Klucel (hydroxypropylcellulose) (HPC)
[2] = dose: 100.0 mg/kg/injection, schedule: Q01DX009 (ip), vehicle: Klucel (hydroxypropylcellulose) (HPC)
[3] = dose: 200.0 mg/kg/injection, schedule: Q04DX003 (ip), vehicle: Klucel (hydroxypropylcellulose) (HPC)
[4] = dose: 400.0 mg/kg/injection, schedule: Q04DX003 (ip), vehicle: Klucel (hydroxypropylcellulose) (HPC)
[5] = dose: 200.0 mg/kg/injection, schedule: Q01DX009 (ip), vehicle: Klucel (hydroxypropylcellulose) (HPC)
[6] = dose: 100.0 mg/kg/injection, schedule: Q01DX009 (ip), vehicle: saline with Tween-80
[7] = dose: 300.0 mg/kg/injection, schedule: Q01DX001 (ip), vehicle: other
[8] = dose: 400.0 mg/kg/injection, schedule: Q04DX003 (ip), vehicle: saline
[9] = dose: 100.0 mg/kg/injection, schedule: Q04DX003 (ip), vehicle: Klucel (hydroxypropylcellulose) (HPC)
[10] = dose: 100.0 mg/kg/injection, schedule: Q04DX003 (ip), vehicle: saline
[11] = dose: 200.0 mg/kg/injection, schedule: Q04DX003 (ip), vehicle: saline
[12] = dose: 75.0 mg/kg/injection, schedule: Q01DX001 (ip), vehicle: saline
[13] = dose: 150.0 mg/kg/injection, schedule: Q01DX001 (ip), vehicle: saline
[14] = dose: 300.0 mg/kg/injection, schedule: Q01DX001 (ip), vehicle: saline
[15] = dose: 200.0 mg/kg/injection, schedule: Q04DX002 (ip), vehicle: saline
[16] = dose: 400.0 mg/kg/injection, schedule: Q04DX002 (ip), vehicle: saline
[17] = dose: 400.0 mg/kg/injection, schedule: Q04DX003 (ip), vehicle: saline with Tween-80

Q: For `COC(=O)c1cc([N+](=O)[O-])c(Cl)c([N+](=O)[O-])c1`, which survivor count [1] is on record?
A: 0 of 6

Q: What about the survivor count [2] of the same compound?
A: 0 of 6

Q: And the survivor count [3]?
A: 6 of 6

Q: And the survivor count [4]?
A: 2 of 6

Q: With `COc1ccc(NC(=O)Oc2ccc(Cl)cc2Cl)c(OC)c1` as the compound, how does the survivor count (dose: 400.0 mg/kg/injection, schedule: Q01DX009 (ip), vehicle: Klucel (hydroxypropylcellulose) (HPC)) read?
A: 3 of 6

Q: What does the source list for `CCc1cc(CC)c(S(=O)(=O)O)c(CC)c1CC`?
A: survivor count (dose: 200.0 mg/kg/injection, schedule: Q01DX009 (ip), vehicle: saline): 0 of 6; survivor count (dose: 400.0 mg/kg/injection, schedule: Q01DX009 (ip), vehicle: saline): 0 of 6

Q: For `COc1ccc(C)cc1NC(=O)Nc1ccccc1F`, which survivor count [5] is on record?
A: 6 of 6

Q: For `O=c1[nH]cnc2c(C3OC(CO)C(O)C3O)[nH]nc12` (stereo not given), which survivor count (dose: 5.0 mg/kg/injection, schedule: Q01DX015 (ip), vehicle: carboxymethylcellulose (CMC)) is on record?
A: 6 of 6

Q: For `O=C1OC(=O)c2ccc(S)c3cccc1c23`, which survivor count [6] is on record?
A: 6 of 6

Q: And the survivor count (dose: 400.0 mg/kg/injection, schedule: Q01DX009 (ip), vehicle: saline with Tween-80)?
A: 6 of 6

Q: Which survivor count [7] does the source give for `COC(C#N)C(O)(c1ccccc1)c1ccccc1` (stereo not given) here?
A: 3 of 6

Q: Which survivor count [3] does the source give for `C[As](=O)(O)c1ccc(N)cc1` here?
A: 3 of 6

Q: What about the survivor count [4] of the same compound?
A: 0 of 6

Q: For `[Cl][Pt+2][Cl].[NH-]c1ccc([N+](=O)[O-])cc1.[NH-]c1ccc([N+](=O)[O-])cc1`, which survivor count [8] is on record?
A: 1 of 3

Q: Which results are given for `ClC(C[n+]1ccccc1)c1ccccc1` (stereo not given)?
A: survivor count (dose: 200.0 mg/kg/injection, schedule: Q01DX001 (ip), vehicle: saline): 0 of 4; survivor count (dose: 400.0 mg/kg/injection, schedule: Q01DX001 (ip), vehicle: saline): 0 of 4

Q: With `Cc1cc(=O)[nH]c(N2C(=O)c3ccccc3C2=O)n1` as the compound, how does the survivor count [9] read?
A: 6 of 6

Q: Which results are given for `CCCCCCCCCN(CCCC)CCCC`?
A: survivor count (dose: 100.0 mg/kg/injection, schedule: Q01DX001 (ip), vehicle: saline with Tween-80): 0 of 6; survivor count (dose: 200.0 mg/kg/injection, schedule: Q01DX001 (ip), vehicle: saline with Tween-80): 0 of 6; survivor count (dose: 400.0 mg/kg/injection, schedule: Q01DX001 (ip), vehicle: saline with Tween-80): 0 of 6

Q: Which results are given for `CN(C)CC/C=C1\c2ccccc2Sc2ccc(C(F)(F)F)cc21`?
A: survivor count (dose: 6.25 mg/kg/injection, schedule: Q01DX009 (ip), vehicle: saline): 0 of 6; survivor count (dose: 12.5 mg/kg/injection, schedule: Q01DX009 (ip), vehicle: saline): 1 of 6; T/C (dose: 14.0 mg/kg/injection, schedule: Q01DX Z (ip), vehicle: other): 126 % of control; T/C (dose: 21.0 mg/kg/injection, schedule: Q01DX Z (ip), vehicle: carboxymethylcellulose (CMC)): 128 % of control; survivor count (dose: 25.0 mg/kg/injection, schedule: Q01DX009 (ip), vehicle: saline): 6 of 6; survivor count (dose: 25.0 mg/kg/injection, schedule: Q04DX003 (ip), vehicle: saline): 1 of 4; survivor count (dose: 31.0 mg/kg/injection, schedule: Q01DX Z (ip), vehicle: other): 2 of 6; survivor count (dose: 50.0 mg/kg/injection, schedule: Q01DX009 (ip), vehicle: saline): 3 of 6; survivor count (dose: 50.0 mg/kg/injection, schedule: Q04DX003 (ip), vehicle: saline): 0 of 4; survivor count (dose: 62.0 mg/kg/injection, schedule: Q01DX Z (ip), vehicle: other): 0 of 6; survivor count [10]: 0 of 4 and 3 of 6; survivor count [11]: 0 of 4 and 0 of 6; survivor count [8]: 0 of 4

Q: What does the source list for `COC(=O)/C=C(\C(=O)OC)n1ccccc1=O`?
A: survivor count [12]: 0 of 6; survivor count (dose: 80.0 mg/kg/injection, schedule: Q01DX001 (ip), vehicle: saline): 1 of 6; survivor count [13]: 0 of 6; survivor count [14]: 0 of 6

Q: With `CCOC(=O)C1CCCCN1` (stereo not given) as the compound, how does the survivor count [14] read?
A: 4 of 6

Q: What does the source list for `O=[As](O)(O)CCc1ccccc1`?
A: survivor count (dose: 50.0 mg/kg/injection, schedule: Q04DX003 (ip), vehicle: Klucel (hydroxypropylcellulose) (HPC)): 0 of 3; survivor count [9]: 1 of 6; survivor count [3]: 0 of 6; survivor count [4]: 0 of 6

Q: `CCOC(=O)NCC(CCN1CCCCC1)(CCN1CCCCC1)c1cccc2ccccc12` was tested. Which survivor count [3] did it give?
A: 0 of 6

Q: What about the survivor count [4] of the same compound?
A: 0 of 6

Q: With `CN(c1ccccc1Cl)c1ccccc1Cl` as the compound, how does the survivor count (dose: 25.6 mg/kg/injection, schedule: Q04DX002 (ip), vehicle: saline with Tween-80) read?
A: 3 of 3

Q: Which survivor count (dose: 75.0 mg/kg/injection, schedule: Q01DX001 (ip), vehicle: other) does the source give for `c1ccc2c(c1)ccc1c2ccc2sc3ccccc3[n+]21` here?
A: 0 of 6

Q: And the survivor count (dose: 150.0 mg/kg/injection, schedule: Q01DX001 (ip), vehicle: other)?
A: 0 of 6

Q: What about the survivor count [7] of the same compound?
A: 0 of 6

Q: How did the survivor count (dose: 25.0 mg/kg/injection, schedule: Q04DX002 (ip), vehicle: saline) turn out when `[CH3][Pb]([CH3])([CH3])[O]C(=O)C(F)(F)F` was run?
A: 3 of 3

Q: What about the survivor count (dose: 50.0 mg/kg/injection, schedule: Q04DX002 (ip), vehicle: saline) of the same compound?
A: 0 of 3

Q: And the survivor count (dose: 100.0 mg/kg/injection, schedule: Q04DX002 (ip), vehicle: saline)?
A: 0 of 3

Q: What about the survivor count [15] of the same compound?
A: 0 of 3

Q: And the survivor count [16]?
A: 0 of 3

Q: For `O=C1CC2(CCCCC2)C(=O)N1`, which survivor count [12] is on record?
A: 0 of 6

Q: What about the survivor count [13] of the same compound?
A: 0 of 6

Q: What about the survivor count [14] of the same compound?
A: 0 of 6

Q: Which survivor count [11] does the source give for `N=C(N)c1ccc(-c2cc3cc(C(=N)N)ccc3s2)cc1` here?
A: 2 of 4

Q: And the survivor count [8]?
A: 0 of 4

Q: Which survivor count (dose: 50.0 mg/kg/injection, schedule: Q01DX009 (ip), vehicle: saline with Tween-80) does the source give for `OC1C2C3CCC(C3)C2C(O)C2C3CCC(C3)C12` (stereo not given) here?
A: 3 of 3

Q: And the survivor count [6]?
A: 3 of 3

Q: What about the survivor count (dose: 200.0 mg/kg/injection, schedule: Q01DX009 (ip), vehicle: saline with Tween-80) of the same compound?
A: 3 of 3

Q: Which survivor count [5] does the source give for `COC(=O)c1nc(Cl)nc(S(C)(=O)=O)c1Cl` here?
A: 0 of 3

Q: What does the source list for `COc1cccc(C)c1-n1c(C)cc(C(=O)O)c1C`?
A: survivor count [10]: 6 of 6; survivor count [11]: 6 of 6; survivor count [8]: 6 of 6

Q: How did the survivor count [2] turn out when `O=C(Cl)C1CC2c3ccccc3C1([N+](=O)[O-])c1ccccc12` (stereo not given) was run?
A: 6 of 6

Q: For `c1ccc(CNCc2ccccn2)nc1`, which survivor count [15] is on record?
A: 0 of 3

Q: What about the survivor count [16] of the same compound?
A: 0 of 3

Q: For `O=C(Nc1cc[n+](Cc2ccc(S(=O)(=O)F)cc2)cc1)c1ccccc1`, which survivor count [17] is on record?
A: 3 of 6

Q: With `CCN(CC)Cc1cc(Nc2cc(C)nc(/N=C(\N)Nc3cc(Cl)cc(Cl)c3)n2)ccc1O` as the compound, how does the survivor count (dose: 200.0 mg/kg/injection, schedule: Q04DX003 (ip), vehicle: saline with Tween-80) read?
A: 5 of 6

Q: What about the survivor count [17] of the same compound?
A: 3 of 6

Q: With `O[C@H](c1cc(C(F)(F)F)nc2c(C(F)(F)F)cccc12)[C@@H]1CCCCN1` as the compound, how does the survivor count [1] read?
A: 3 of 6

Q: What about the survivor count [9] of the same compound?
A: 2 of 6

Q: What about the survivor count [3] of the same compound?
A: 1 of 6

Q: What about the survivor count [4] of the same compound?
A: 0 of 6

Q: Which survivor count (dose: 200.0 mg/kg/injection, schedule: Q01DX001 (ip), vehicle: Klucel (hydroxypropylcellulose) (HPC)) does the source give for `CCCCn1c(C)nc2c([N+](=O)[O-])cc(C(F)(F)F)cc21` here?
A: 3 of 3

Q: For `[Cu+2].[NH-]C1C(Cl)CCC2C(Cl)CC[N-]C12` (stereo not given), which survivor count (dose: 25.0 mg/kg/injection, schedule: Q04DX003 (ip), vehicle: Klucel (hydroxypropylcellulose) (HPC)) is on record?
A: 2 of 6

Q: What about the survivor count (dose: 50.0 mg/kg/injection, schedule: Q01DX001 (ip), vehicle: other) of the same compound?
A: 2 of 6

Q: `CC1(C)C(C#N)C(=O)N(Cc2ccccc2)C(=O)C1C#N` (stereo not given) was tested. Which survivor count [17] did it give?
A: 5 of 6
